We go through 1 substance from publication doi:10.1101/2021.05.24.445478.

Protein sequences, listed by entry. Tags and fused reporters are not part of them.
UniProt O75909, whole entry: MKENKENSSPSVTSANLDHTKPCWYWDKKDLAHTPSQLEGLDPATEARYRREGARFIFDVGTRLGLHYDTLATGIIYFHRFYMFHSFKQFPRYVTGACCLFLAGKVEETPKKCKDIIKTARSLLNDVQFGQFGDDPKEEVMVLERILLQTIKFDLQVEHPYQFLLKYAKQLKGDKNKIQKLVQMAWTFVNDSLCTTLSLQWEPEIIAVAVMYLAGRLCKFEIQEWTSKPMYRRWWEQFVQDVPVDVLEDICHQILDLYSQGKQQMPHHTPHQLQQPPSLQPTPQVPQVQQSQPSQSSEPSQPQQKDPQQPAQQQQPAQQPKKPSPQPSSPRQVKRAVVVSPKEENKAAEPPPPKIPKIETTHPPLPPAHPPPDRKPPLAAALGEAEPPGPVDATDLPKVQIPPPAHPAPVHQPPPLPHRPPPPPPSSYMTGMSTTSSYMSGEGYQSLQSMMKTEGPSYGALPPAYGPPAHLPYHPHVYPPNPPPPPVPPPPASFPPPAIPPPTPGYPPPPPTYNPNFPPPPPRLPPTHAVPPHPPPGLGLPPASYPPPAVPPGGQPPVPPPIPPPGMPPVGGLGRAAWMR
UniProt Q14004, whole entry: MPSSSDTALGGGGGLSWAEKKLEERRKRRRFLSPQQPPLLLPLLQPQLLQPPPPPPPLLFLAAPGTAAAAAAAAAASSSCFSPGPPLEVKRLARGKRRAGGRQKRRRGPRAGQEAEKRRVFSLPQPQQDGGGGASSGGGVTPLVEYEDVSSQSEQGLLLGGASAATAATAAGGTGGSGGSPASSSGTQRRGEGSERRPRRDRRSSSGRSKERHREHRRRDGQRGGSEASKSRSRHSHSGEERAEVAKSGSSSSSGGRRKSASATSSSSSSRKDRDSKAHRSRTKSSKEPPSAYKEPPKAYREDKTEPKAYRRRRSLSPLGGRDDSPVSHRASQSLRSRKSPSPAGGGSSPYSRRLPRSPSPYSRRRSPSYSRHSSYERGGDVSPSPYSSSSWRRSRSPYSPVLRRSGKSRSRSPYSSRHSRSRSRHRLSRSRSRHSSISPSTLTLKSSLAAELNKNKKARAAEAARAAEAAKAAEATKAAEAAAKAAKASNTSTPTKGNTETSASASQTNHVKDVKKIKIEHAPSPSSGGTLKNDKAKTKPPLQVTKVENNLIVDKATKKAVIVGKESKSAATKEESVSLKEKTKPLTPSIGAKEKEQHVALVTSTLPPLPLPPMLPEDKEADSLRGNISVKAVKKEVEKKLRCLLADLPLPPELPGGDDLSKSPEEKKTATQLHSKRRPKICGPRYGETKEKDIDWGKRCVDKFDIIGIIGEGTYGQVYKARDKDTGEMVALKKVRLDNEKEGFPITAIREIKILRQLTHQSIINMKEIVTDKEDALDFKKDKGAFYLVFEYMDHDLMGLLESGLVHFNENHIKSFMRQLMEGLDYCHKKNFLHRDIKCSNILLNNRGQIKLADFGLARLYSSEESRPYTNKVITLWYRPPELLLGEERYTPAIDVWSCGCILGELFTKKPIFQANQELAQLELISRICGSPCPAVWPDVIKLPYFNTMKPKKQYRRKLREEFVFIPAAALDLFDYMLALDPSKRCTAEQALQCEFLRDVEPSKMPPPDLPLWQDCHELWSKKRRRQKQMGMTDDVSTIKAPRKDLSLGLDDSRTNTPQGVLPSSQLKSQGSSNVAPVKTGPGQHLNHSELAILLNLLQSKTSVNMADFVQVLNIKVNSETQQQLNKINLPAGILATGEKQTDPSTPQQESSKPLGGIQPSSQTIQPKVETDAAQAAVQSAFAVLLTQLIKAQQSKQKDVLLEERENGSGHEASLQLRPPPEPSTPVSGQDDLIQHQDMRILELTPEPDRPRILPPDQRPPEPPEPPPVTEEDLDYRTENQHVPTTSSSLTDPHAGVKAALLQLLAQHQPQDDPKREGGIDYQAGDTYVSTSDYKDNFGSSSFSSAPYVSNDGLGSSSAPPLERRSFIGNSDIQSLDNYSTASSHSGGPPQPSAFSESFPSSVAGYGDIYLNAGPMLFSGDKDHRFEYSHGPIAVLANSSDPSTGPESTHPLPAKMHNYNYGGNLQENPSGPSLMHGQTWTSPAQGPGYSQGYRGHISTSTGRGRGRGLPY

Results are given in words; binding and its absence hold for the method and conditions named. Binding seen in cells or lysates may run through a third protein. Some binding calls cover weakened binding; strength is not graded here.

This test deals with FLAG-tagged CycK protein (human) (UniProt O75909). The experiment in a line: co-IP.

As to “HA-tagged CDK13 protein (from UniProt Q14004 1-1512)”, the binding result is reported as “binds”.
